According to publication PMC7949164:
These are yes or no findings as the source states them, for the method shown. In cells and extracts the contact can be indirect. Some results given as binding are weak or reduced against the parent protein; the word gives no strength. Where a sequence is shown, tags or fusion partners need not be part of it.

The chains behind the UniProt entries cited, without tags or fusion partners.
UniProt P29067: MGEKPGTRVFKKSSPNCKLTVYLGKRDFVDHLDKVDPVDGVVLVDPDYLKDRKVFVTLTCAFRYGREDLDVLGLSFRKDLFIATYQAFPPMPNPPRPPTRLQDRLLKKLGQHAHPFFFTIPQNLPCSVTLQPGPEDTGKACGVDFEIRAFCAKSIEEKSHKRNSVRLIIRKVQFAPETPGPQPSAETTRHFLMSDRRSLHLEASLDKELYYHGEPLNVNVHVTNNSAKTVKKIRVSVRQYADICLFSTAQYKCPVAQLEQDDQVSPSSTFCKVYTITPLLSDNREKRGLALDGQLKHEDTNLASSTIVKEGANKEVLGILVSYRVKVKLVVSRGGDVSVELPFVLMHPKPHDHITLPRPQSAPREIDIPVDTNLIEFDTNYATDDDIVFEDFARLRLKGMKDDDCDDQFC

Tests used:
[1] = target: T1, mouse Ccr1 with a C-terminal renilla luciferase variant 8 (Rluc8) reporter (mouse) (UniProt P51675); test: FRET or BRET; 293T cells cotransfected with beta-arrestin2 mYFP and receptor-Rluc8 (50 or 100 ng plasmid) or empty pcDNA-Rluc8; coelenterazine h 5 uM; buffer alone or 100 nM Ccl3, Ccl9/10 or Ccl22; net BRET (YFP/Rluc8) recorded over time
T1 sequence: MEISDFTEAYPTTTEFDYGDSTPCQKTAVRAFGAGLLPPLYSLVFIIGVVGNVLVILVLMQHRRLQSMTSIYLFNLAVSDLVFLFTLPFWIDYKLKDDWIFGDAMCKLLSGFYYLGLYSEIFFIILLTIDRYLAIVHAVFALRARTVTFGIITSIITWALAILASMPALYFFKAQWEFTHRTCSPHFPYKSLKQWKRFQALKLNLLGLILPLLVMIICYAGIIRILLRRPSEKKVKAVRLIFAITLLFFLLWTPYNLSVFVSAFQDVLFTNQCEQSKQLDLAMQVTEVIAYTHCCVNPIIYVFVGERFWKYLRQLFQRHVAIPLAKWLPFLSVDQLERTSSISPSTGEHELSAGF

[2] = target: T2, mouse Ccr1l1 (Ccr1-like 1) with a C-terminal renilla luciferase variant 8 (Rluc8) reporter (mouse) (UniProt P51676); test: as above
T2 sequence: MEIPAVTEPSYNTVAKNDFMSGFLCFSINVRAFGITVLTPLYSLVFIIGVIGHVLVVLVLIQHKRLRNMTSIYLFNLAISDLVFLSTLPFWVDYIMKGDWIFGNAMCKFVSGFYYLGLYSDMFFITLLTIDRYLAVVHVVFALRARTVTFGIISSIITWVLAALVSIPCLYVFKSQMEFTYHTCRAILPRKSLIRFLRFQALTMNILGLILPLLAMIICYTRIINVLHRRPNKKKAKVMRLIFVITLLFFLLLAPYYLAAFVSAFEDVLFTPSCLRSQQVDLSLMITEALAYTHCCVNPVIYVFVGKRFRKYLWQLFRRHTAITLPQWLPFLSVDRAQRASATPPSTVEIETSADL

Substance: beta-arrestin2 mYFP (from UniProt P29067 1-410)
- binding [1]: binds
- binding [2]: no binding
